Reference: PubChem BioAssay AID662 (National Center for Advancing Translational Sciences (NCATS), 2007)
This is one part of the list. The main result of the screen is listed elsewhere. These columns were measured beside it and carry no call. Most of these compounds were active or inconclusive in the main read-out, so they are no random draw. The note in brackets gives the kind of curve behind each potency; many fits are weak.

Experiment: Cell signaling CRE-BLA (Fsk stim)
Details: CHO CRE-bla reporter (cAMP response element driving beta-lactamase), forskolin EC10, beta-lactamase ratio; measured here: 460 nm blue channel
Text: NIH Molecular Libraries Screening Centers Network [MLSCN]
NIH Chemical Genomics Center [NCGC]
Assay Provider: Marshall W. Nirenberg, U.S. National heart lung & blood institute
Memories persist for different lengths of time, from seconds or minutes to a lifetime. There are two kinds of memory: short-term memory (STM) and long-term memory (LTM). STM lasts for minutes to hours, which maybe mediated by modifications of molecules involved in synaptic functions. LTM lasts for days or longer, and may be due to the formation of new synapses or restructuring of existing synapses. LTM, but not STM, requires gene transcription and synthesis of proteins. CREB (cyclic-AMP Responsive Element Binding Protein) is one of the candidates plays an important role for enhancement of some types of LTM. CREB, a family of transcription factors, regulates the transcription of genes containing cAMP Responsive Elements (CRE). CRE is a nucleotide sequence often found in the promoter regions of genes that are binding sites for CREB.
Using a beta-lactamase reporter-gene under control of cAMP responsive element, a cell-based assay [CellSensor(TM) CRE-bla CHO developed by Invitrogen Corp.] was used to measure forskolin-induced signaling. Library compounds were measured for their ability to modulate positively or negatively the action of EC10 NKH 477, a water soluble forskolin, on reporter gene activity. Compounds were screened in a titration series in 1536-well format. Positive and negative modulators were identified based on the AC50 values derived from the screening data.
NCGC Assay Protocol Summary
2000 cells/5uL in Opti-MEM medium containing 0.5% dialyzed FBS, 0.1 mM NEAA, 1 mM sodium pyruvate and 10 mM HEPES was dispensed into 1536-well plates and cells were cultured at 37 degrees Celsius overnight. […] And then the plates were incubated at 37 degrees Celsius for 3 hours. 1 uL of CCF4-dye mixture was added to each well. After incubated at room temperature for 2 hours the plates were measured on an EnVision plate reader at Excitation 405nm, Emission1=460nm and Emission 2=530nm. The %Activity was determined from the ratio of 460nm/530nm.
Keywords: NIH Roadmap, MLSCN, MLSMR, qHTS, NCGC, CRE, beta-lactamase reporter-gene assay.

| SMILES | AC50 |
| --- | --- |
| COc1cccc(-c2csc(N3CCN(CC(=O)Nc4ccc5c(c4)OCO5)CC3)n2)c1 | 10 µM [falling, single point] |
| Nc1nc(CSc2ccccn2)nc(Nc2ccccc2)n1 | 25.1 µM [rising, single point] |
| CN(C)C(=O)C(CCN1CCC(O)(c2ccc(Cl)cc2)CC1)(c1ccccc1)c1ccccc1 | 12.6 µM [falling, single point] |
| COc1ccc(CNc2ncnc3ccc(-c4cccc(C#N)c4)cc23)c(OC)c1 | 10 µM [rising, partial curve] |
| Cc1cccc(N2CC(C(=O)O)CC2=O)c1 (centres undefined) | 15.8 µM [falling, partial curve] |
| OC(COCc1ccco1)CN1CCN(C(c2ccccc2)c2ccccc2)CC1 (centres undefined) | 3.16 µM [falling, single point] |
| COc1ccc(CNc2ncnc3ccc(-c4c(C)noc4C)cc23)c(OC)c1 | 5.01 µM [rising, partial curve] |
| CCOC(=O)Cc1nn(CCc2ccccn2)c(=O)c2ccccc12 | 12.6 µM [rising, partial curve, poor fit] |
| COC(=O)c1cc(OC)c(OC)cc1NC(=O)CCC1CCCC1 | 10 µM [rising, partial curve] |
| c1ccc(-c2noc(CSc3nnc(Cc4cccs4)n3-c3ccccc3)n2)cc1 | 10 µM [rising, partial curve] |
| CCn1c(CSc2nnc(-c3cccnc3)n2-c2ccccc2C)nc2cc(C(=O)O)ccc21 | 0.00316 µM [falling, full curve, poor fit] |
| CC(C)=CCC/C(C)=C/CN(CC(C)O)CC(C)O (centres undefined) | 0.01 µM [falling, full curve] |
| Cc1cc(NC(=O)CCCC(=O)NCc2cccs2)no1 | 25.1 µM [rising, single point] |
| Cn1nnnc1NCc1c(F)cccc1Cl | 25.1 µM [rising, single point] |
| CCOC(=O)C1CCN(C(=O)C2CC(=O)N(c3ccc(C)cc3)C2)CC1 (centres undefined) | 3.98 µM [rising, single point] |
| CCOC(=O)CSc1nc2c(sc(=S)n2CCc2ccccc2)c(=O)n1Cc1ccco1 | 5.01 µM [rising, single point] |
| COc1cc2c3c(c1)C1(C(=O)N3C(C)(C)C=C2C)C(C#N)=C(N)Oc2cc(O)ccc21 (centres undefined) | 10 µM [falling, partial curve, poor fit] |
| COc1ccc(N2C(=O)CCC(C(C)=O)=C2C)cc1 | 0.00631 µM [falling, full curve] |
| C=CCn1c(N2CCCC2)nc2c1c(=O)[nH]c(=O)n2C | 12.6 µM [rising, partial curve] |
| COc1cc2c(cc1OC)C(c1cccs1)NCC2 (centres undefined) | 12.6 µM [rising, partial curve] |
| Cc1cccc(-n2c(O)c(C=Nc3ccc4c(c3)OCO4)c3ccccc3c2=O)n1 | 2.51 µM [rising, partial curve] |
| Cc1c(C(=O)NCCC2=CCCCC2)oc2ccc(S(=O)(=O)N3CCOCC3)cc12 | 12.6 µM [falling, partial curve] |

| SMILES | AC50 |
| --- | --- |
| Cc1noc(C)c1CSc1ncnc2sc3c(c12)CCC3 | 0.0398 µM [falling, full curve] |
| Cc1ccc2nc(CC(=O)c3ccc4ccccc4c3)c(=O)[nH]c2c1 | 0.794 µM [rising, partial curve, poor fit] |
| COc1ccc(OC)c(NC(=O)C2CC(=O)N(c3ccccc3)C2)c1 (centres undefined) | 25.1 µM [rising, single point] |
| Cc1cc(C)c2c(=O)[nH]c(SCC(=O)N3CCCCC3)nc2n1 | 1.26 µM [rising, partial curve] |
| COc1cccc(-c2cc(NCc3cccnc3)ncn2)c1 | 12.6 µM [rising, partial curve] |
| CCNc1ncc2nc(C)c(=O)n(Cc3cccc(OC)c3)c2n1 | 12.6 µM [rising, partial curve] |
| COc1ncnc2c1N=C1CC(C)(C)CC(N)=C1S2 | 25.1 µM [rising, single point] |
| COc1cc(C(=O)NCCc2cn3ccc(C)cc3n2)cc(OC)c1OC | 6.31 µM [rising, partial curve] |
| CCOc1ccc(N(Cc2cc3cc(OC)ccc3[nH]c2=O)S(C)(=O)=O)cc1 | 25.1 µM [rising, single point] |
| Cn1c(=O)c2c(nc3sccn32)n(C)c1=O | 0.794 µM [falling, full curve] |
| O=c1[nH]c(=O)n(C2CCCCCC2)c(O)c1C=NCc1ccc(F)cc1 | 12.6 µM [rising, partial curve] |
| CC(=O)Nc1ccc(S(=O)(=O)NCc2ccc(C(=O)NCCN3CCCCCC3)cc2)cc1 | 0.00398 µM [falling, full curve, poor fit] |
| O=C(CCCN1C(=O)C2C3C=CC(C3)C2C1=O)N1CCN(c2ccccc2)CC1 (centres undefined) | 25.1 µM [rising, single point] |
| c1ccc(Nc2c3c(nc4ncnn24)CCC3)cc1 | 10 µM [rising, partial curve] |
| COc1cccc(C2CC(c3ccccc3Cl)n3nnnc3N2)c1 (centres undefined) | 12.6 µM [rising, single point] |
| CCOC(=O)N1CCC(NC(=O)CSc2cc(=O)n(C)c3ccc(Cl)cc23)CC1 | 0.2 µM [rising, full curve, poor fit] |
| CCn1cc(C(=O)N2CC=C(c3ccccc3)CC2)c(=O)c2ccc(C)nc21 | 10 µM [rising, partial curve] |
| NC(N)=NC(N)=Nc1cccc(Cl)c1 | 31.6 µM [falling, single point] |
| O=C1c2ccccc2NC2CCCCC12 (centres undefined) | 0.398 µM [falling, single point] |
| Cc1nc2nc(C)n(-c3ccccc3)c2s1 | 12.6 µM [rising, single point] |
| CCOc1c(Br)ccc2c1sc1nc[nH]c(=O)c12 | 12.6 µM [falling, single point] |
| CSCCOC(=O)C1=C(C)NC(=O)CC1c1ccccc1Cl (centres undefined) | 7.94 µM [falling, partial curve] |

Ordered by molecular weight (high to low): part of the list above.

| SMILES | AC50 |
| --- | --- |
| CN(C)C(=O)C(CCN1CCC(O)(c2ccc(Cl)cc2)CC1)(c1ccccc1)c1ccccc1 | 12.6 µM [falling, single point] |
| COc1cc2c3c(c1)C1(C(=O)N3C(C)(C)C=C2C)C(C#N)=C(N)Oc2cc(O)ccc21 (centres undefined) | 10 µM [falling, partial curve, poor fit] |
| OC(COCc1ccco1)CN1CCN(C(c2ccccc2)c2ccccc2)CC1 (centres undefined) | 3.16 µM [falling, single point] |
| Cc1cccc(-n2c(O)c(C=Nc3ccc4c(c3)OCO4)c3ccccc3c2=O)n1 | 2.51 µM [rising, partial curve] |
| CSCCOC(=O)C1=C(C)NC(=O)CC1c1ccccc1Cl (centres undefined) | 7.94 µM [falling, partial curve] |
| CCNc1ncc2nc(C)c(=O)n(Cc3cccc(OC)c3)c2n1 | 12.6 µM [rising, partial curve] |
| Cc1cc(NC(=O)CCCC(=O)NCc2cccs2)no1 | 25.1 µM [rising, single point] |
| COc1cc2c(cc1OC)C(c1cccs1)NCC2 (centres undefined) | 12.6 µM [rising, partial curve] |
| c1ccc(Nc2c3c(nc4ncnn24)CCC3)cc1 | 10 µM [rising, partial curve] |
| Cc1nc2nc(C)n(-c3ccccc3)c2s1 | 12.6 µM [rising, single point] |
| NC(N)=NC(N)=Nc1cccc(Cl)c1 | 31.6 µM [falling, single point] |
